The target of this test is BiP (UniProt P11021). As to the kind of experiment: co-IP; coprecipitation of INPP5K (wild-type and disease-related mutants) and BiP; bait, cells and conditions are not told in the text shown (Figure S10).

Amino acid sequences for entries named in this document (tags omitted). Residues count along the entry.
UniProt P11021, residues 19-654: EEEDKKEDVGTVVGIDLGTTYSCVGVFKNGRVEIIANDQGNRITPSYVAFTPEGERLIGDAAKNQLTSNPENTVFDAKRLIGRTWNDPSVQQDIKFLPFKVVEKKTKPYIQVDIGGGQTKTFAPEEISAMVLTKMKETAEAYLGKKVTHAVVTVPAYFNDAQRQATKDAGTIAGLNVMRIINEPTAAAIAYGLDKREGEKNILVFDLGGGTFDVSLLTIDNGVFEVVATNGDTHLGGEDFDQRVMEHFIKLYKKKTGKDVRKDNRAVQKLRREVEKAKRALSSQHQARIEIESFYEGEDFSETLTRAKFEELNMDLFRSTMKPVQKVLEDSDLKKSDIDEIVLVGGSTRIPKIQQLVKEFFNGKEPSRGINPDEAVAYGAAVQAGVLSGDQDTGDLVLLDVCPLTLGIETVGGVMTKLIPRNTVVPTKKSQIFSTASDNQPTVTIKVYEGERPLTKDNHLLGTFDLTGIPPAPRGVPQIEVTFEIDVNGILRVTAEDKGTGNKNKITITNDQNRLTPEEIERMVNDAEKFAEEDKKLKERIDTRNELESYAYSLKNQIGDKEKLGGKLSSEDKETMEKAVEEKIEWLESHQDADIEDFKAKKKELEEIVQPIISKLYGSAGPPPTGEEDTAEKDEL

Results are given in words; binding and its absence hold for the method and conditions named. In cells and extracts the contact can be indirect. Some entries that bind do so weakly or less than the wild type.

B1: inositol polyphosphate-5-phosphatase K (INPP5K), wild-type (enzyme, UniProt Q9BT40-1 1-448)
chain: MSSRKLSGPKGRRLSIHVVTWNVASAAPPLDLSDLLQLNNRNLNLDIYVIGLQELNSGIISLLSDAAFNDSWSSFLMDVLSPLSFIKVSHVRMQGILLLVFAKYQHLPYIQILSTKSTPTGLFGYWGNKGGVNICLKLYGYYVSIINCHLPPHISNNYQRLEHFDRILEMQNCEGRDIPNILDHDLIIWFGDMNFRIEDFGLHFVRESIKNRCYGGLWEKDQLSIAKKHDPLLREFQEGRLLFPPTYKFDRNSNDYDTSEKKRKPAWTDRILWRLKRQPCAGPDTPIPPASHFSLSLRGYSSHMTYGISDHKPVSGTFDLELKPLVSAPLIVLMPEDLWTVENDMMVSYSSTSDFPSSPWDWIGLYKVGLRDVNDYVSYAWVGDSKVSCSDNLNQVYIDISNIPTTEDEFLLCYYSNSLRSVVGISRPFQIPPGSLREDPLGEAQPQI
Take B1: the binding result is “binds”.

These data come from article PMC5339217.
